Test results published in patent EP4596536A1 (Shanghai de Novo Pharmatech Co., Ltd., priority 2022, dated 2024).

Experiment: general procedure: peptide synthesis; 2-chlorotrityl chloride resin (L-55, L-59 only); HATU/DIPEA; EDCI/HOBT
Settings: late stage modification step

**Q.** With “(S)-2-amino-8-(1-((6-(5-benzyl-43-(4-(2,5-dioxo-2,5-dihydro-1H-pyrrol-1-yl)phenyl)-4,7,10,13,35,42-hexaoxo-16,19,22,25,28,31-hexaoxa-3,6,9,12,34,41-hexaazattritetracontanacyl)-5,6,7,8-tetrahydro-1,6-naphthyridin-3-yl)carbamoyl)cyclopropyl)-N-(2-hydroxyethyl)-N-propyl-3H-ben” as the substance, how does the step yield read?
**A.** 21%

**Q.** With “2,5-dioxopyrrolidin-1-yl(S)-1-(3-(1-(2-amino-4-((2-hydroxyethyl)(propyl)carbamoyl)-3H-benzo[b]azepin-8-yl)cyclopropane-1-formylamino)-7,8-dihydro-1,6-naphthyridin-6(5H)-yl)-5-benzyl-1,4,7,10,13-pentaoxo-3,6,9,12-tetraazahexadecan-16-oate” as the substance, how does the step yield read?
**A.** 14%

**Q.** For “4-((25,85,115)-2-(4-aminobuty1)-18-(2,5-dioxo-2,5-dihydro-1H-pyrrol-1-yl)-8-(hydroxymethyl)-11-isobutyl-4,7,10,13-tetraoxa-3,6,9,12-tetraazaoctadecanoylatnino)benzyl 3-(1-(2-amino-4-((2-hydroxyethyl)(propyl)carbamoyl)-3H-benzo[b]azepin-8-yl)cyclopropane-1-formylamino)-7,8-d”, which step yield is on record?
**A.** 5%
